PubChem BioAssay AID504804 | Drosophila RNAi Screening Center – 2011

Assay: 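dsRNAs that improve Kc cell survival under doxorubicin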 (primary screen)
Cell system: Drosophila Kc cells
Reagents: long dsRNA against Drosophila genes, 0.5 µg dsRNA per well
Timing: 96 h (48 h knock-down, then 48 h drug)
Conditions: doxorubicin 5 µg/ml for 48 h, added 48 h after dsRNA
Detection: 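Luminescent ATP counts per replicate, not normalised, reflecting viable cells after 48 h dsRNA knock-down followed by 48 h of 5 µg/ml doxorubicin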
Direction: raw ATP luminescence: higher = more viable cells, protection from doxorubicin
Rule for the call: 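z-score of 2 or more over plate mean in both duplicates, retained only when retests and separate dsRNAs confirm the protection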
The screen tested about 19,000 reagents; below is an unselected part of those with a known target gene and a result. Over the whole deposit, 47 (0.25%) are marked active. 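Signals are raw, not normalised; exact z-scores behind calls not deposited; actives needed confirmation, so some wells reaching 2 SD are inactive.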 Reagents against one gene are numbered here. A plus sign joins genes that one reagent is predicted to hit. No sequences are given here.

{"predicted target": "CG18662", "reagent": 1, "raw ATP luminescence, replicate 1": 46793, "raw ATP luminescence, replicate 2": 71200, "Outcome": "inactive"}
{"predicted target": "comm2", "reagent": 1, "raw ATP luminescence, replicate 1": 44373, "raw ATP luminescence, replicate 2": 42703, "Outcome": "inactive"}
{"predicted target": "comm2", "reagent": 2, "raw ATP luminescence, replicate 1": 45350, "raw ATP luminescence, replicate 2": 41167, "Outcome": "inactive"}
{"predicted target": "Antp", "reagent": 1, "raw ATP luminescence, replicate 1": 31610, "raw ATP luminescence, replicate 2": 19157, "Outcome": "inactive"}
{"predicted target": "CG3909", "reagent": 1, "raw ATP luminescence, replicate 1": 45487, "raw ATP luminescence, replicate 2": 45913, "Outcome": "inactive"}
{"predicted target": "daed", "reagent": 1, "raw ATP luminescence, replicate 1": 1.14e5, "raw ATP luminescence, replicate 2": 88690, "Outcome": "inactive"}
{"predicted target": "CG1116", "reagent": 1, "raw ATP luminescence, replicate 1": 60940, "raw ATP luminescence, replicate 2": 58323, "Outcome": "inactive"}
{"predicted target": "CG6972", "reagent": 1, "raw ATP luminescence, replicate 1": 60800, "raw ATP luminescence, replicate 2": 57790, "Outcome": "inactive"}
{"predicted target": "CG15544", "reagent": 1, "raw ATP luminescence, replicate 1": 67190, "raw ATP luminescence, replicate 2": 36430, "Outcome": "inactive"}
{"predicted target": "nkt", "reagent": 1, "raw ATP luminescence, replicate 1": 75670, "raw ATP luminescence, replicate 2": 77557, "Outcome": "inactive"}
{"predicted target": "Ack-like", "reagent": 1, "raw ATP luminescence, replicate 1": 74540, "raw ATP luminescence, replicate 2": 60013, "Outcome": "inactive"}

Targets listed so far whose target name begins with A or a (2):
{"predicted target": "Antp", "reagent": 1, "raw ATP luminescence, replicate 1": 31610, "raw ATP luminescence, replicate 2": 19157, "Outcome": "inactive"}
{"predicted target": "Ack-like", "reagent": 1, "raw ATP luminescence, replicate 1": 74540, "raw ATP luminescence, replicate 2": 60013, "Outcome": "inactive"}

Continued.
{"predicted target": "CG9582", "reagent": 1, "raw ATP luminescence, replicate 1": 48830, "raw ATP luminescence, replicate 2": 83553, "Outcome": "inactive"}
{"predicted target": "Sdr", "reagent": 1, "raw ATP luminescence, replicate 1": 62497, "raw ATP luminescence, replicate 2": 30677, "Outcome": "inactive"}
{"predicted target": "Pp1-13C", "reagent": 1, "raw ATP luminescence, replicate 1": 1.55e5, "raw ATP luminescence, replicate 2": 1.84e5, "Outcome": "inactive"}
{"predicted target": "CG4168", "reagent": 1, "raw ATP luminescence, replicate 1": 2.72e5, "raw ATP luminescence, replicate 2": 2.50e5, "Outcome": "inactive"}
{"predicted target": "CG4168", "reagent": 2, "raw ATP luminescence, replicate 1": 2.67e5, "raw ATP luminescence, replicate 2": 2.21e5, "Outcome": "inactive"}
{"predicted target": "CG4168", "reagent": 3, "raw ATP luminescence, replicate 1": 93307, "raw ATP luminescence, replicate 2": 67553, "Outcome": "inactive"}
{"predicted target": "h-cup + Rbp", "reagent": 1, "raw ATP luminescence, replicate 1": 94080, "raw ATP luminescence, replicate 2": 78350, "Outcome": "inactive"}
{"predicted target": "CG18530", "reagent": 1, "raw ATP luminescence, replicate 1": 47710, "raw ATP luminescence, replicate 2": 58880, "Outcome": "inactive"}
{"predicted target": "l(2)41Ab", "reagent": 1, "raw ATP luminescence, replicate 1": 1.95e5, "raw ATP luminescence, replicate 2": 2.16e5, "Outcome": "inactive"}
{"predicted target": "grsm", "reagent": 1, "raw ATP luminescence, replicate 1": 1.18e5, "raw ATP luminescence, replicate 2": 92960, "Outcome": "inactive"}
{"predicted target": "grsm", "reagent": 2, "raw ATP luminescence, replicate 1": 1.13e5, "raw ATP luminescence, replicate 2": 58050, "Outcome": "inactive"}
{"predicted target": "CG31516", "reagent": 1, "raw ATP luminescence, replicate 1": 58843, "raw ATP luminescence, replicate 2": 76607, "Outcome": "inactive"}
{"predicted target": "CG8004", "reagent": 1, "raw ATP luminescence, replicate 1": 21390, "raw ATP luminescence, replicate 2": 14737, "Outcome": "inactive"}
{"predicted target": "Lcp1", "reagent": 1, "raw ATP luminescence, replicate 1": 43070, "raw ATP luminescence, replicate 2": 70127, "Outcome": "inactive"}
{"predicted target": "DIP-epsilon", "reagent": 1, "raw ATP luminescence, replicate 1": 3.01e5, "raw ATP luminescence, replicate 2": 2.99e5, "Outcome": "inactive"}
{"predicted target": "DIP-epsilon", "reagent": 2, "raw ATP luminescence, replicate 1": 20037, "raw ATP luminescence, replicate 2": 22927, "Outcome": "inactive"}
{"predicted target": "ND-MLRQ", "reagent": 1, "raw ATP luminescence, replicate 1": 1.43e5, "raw ATP luminescence, replicate 2": 51663, "Outcome": "inactive"}
